The list does not hold the whole screen: it is rich in T/C values a quarter to a half above the control, in often repeated tests (any T/C) and in doses without a T/C. Further doses and runs are listed elsewhere. T/C is the treated group as % of the vehicle group. Some entries give survivors of the animals treated and no T/C: the source files T/C as zero there, which appears to mark a toxic dose or a test without result, not a measured value. Some survivor counts are full or nearly so, which does not show that the dose was tolerated: survival well below the control is almost never listed, so the zero probably covers shortened survival too. Survivors were counted at the toxicity check, usually on the fifth day, unless a day is given; later deaths do not show. Schedules are NCI's codes, taken here to give the interval after Q, in days (D) or hours (H), and the number of doses after X. Some entries were tested several times; their values stand side by side, smallest first. For survival time, this PubChem deposit counts one and a half times the control or more as active, and values a quarter to a half above the control carry no call in these data; other NCI protocols may use other cut-offs. Some T/C values are followed by the survivors on the day toxicity was checked, most often the fifth; without a count, all were alive then. Brackets with × say how often a value occurs here.
Tested on: P388 leukemia ip, CD2F1 mice, survival T/C
Test: NCI In Vivo Anticancer Drug Screen. Data for tumor model P388 Leukemia (intraperitoneal) in CD2F1 (CDF1) mice
Conditions: T/C endpoint: median survival time, higher T/C = longer survival
[1] = dose: 18.75 mg/kg/injection, schedule: Q01DX009 (ip), vehicle: other
[2] = dose: 200.0 mg/kg/injection, schedule: Q01DX005 (ip), vehicle: distilled water + Tween-80

Which results are given for CC(C)NC(=O)OCc1c(COC(=O)NC(C)C)c(-c2ccc(Cl)c(Cl)c2)n2c1CCC2?
T/C (dose: 0.58 mg/kg/injection, schedule: Q01DX009 (ip), vehicle: other): 128 % of control; T/C (dose: 1.17 mg/kg/injection, schedule: Q01DX009 (ip), vehicle: other): 133 and 139 % of control; T/C (dose: 1.17 mg/kg/injection, schedule: Q01DX009 (ip), vehicle: saline with Tween-80): 136 % of control; T/C (dose: 1.5 mg/kg/injection, schedule: Q01DX009 (ip), vehicle: other): 130 % of control; T/C (dose: 1.56 mg/kg/injection, schedule: Q01DX009 (ip), vehicle: other, evaluated on day 30): 129 % of control; T/C (dose: 1.56 mg/kg/injection, schedule: Q01DX009 (ip), vehicle: other, evaluated on day 60): 130 % of control; T/C (dose: 1.56 mg/kg/injection, schedule: Q01DX009 (ip), vehicle: saline with Tween-80): 134 % of control; T/C (dose: 2.34 mg/kg/injection, schedule: Q01DX009 (ip), vehicle: other): 142 % of control; T/C (dose: 2.34 mg/kg/injection, schedule: Q01DX009 (ip), vehicle: saline with Tween-80): 134 % of control; T/C (dose: 2.5 mg/kg/injection, schedule: Q01DX009 (ip), vehicle: Klucel (hydroxypropylcellulose) (HPC)): 135 % of control; T/C (dose: 3.0 mg/kg/injection, schedule: Q01DX005 (ip), vehicle: other): 126 % of control [9 of 10 alive]; T/C (dose: 3.0 mg/kg/injection, schedule: Q01DX009 (ip), vehicle: other): 141 % of control; T/C (dose: 3.12 mg/kg/injection, schedule: Q01DX009 (ip), vehicle: Klucel (hydroxypropylcellulose) (HPC)): 125 % of control; T/C (dose: 3.12 mg/kg/injection, schedule: Q01DX009 (ip), vehicle: distilled water + Tween-80): 130, 141, 145, 147, 150 % of control; T/C (dose: 3.12 mg/kg/injection, schedule: Q01DX009 (ip), vehicle: other): 143 % of control; T/C (dose: 3.12 mg/kg/injection, schedule: Q01DX009 (ip), vehicle: saline with Tween-80): 145 % of control; T/C (dose: 3.13 mg/kg/injection, schedule: Q01DX009 (ip), vehicle: other): 140 % of control; T/C (dose: 4.69 mg/kg/injection, schedule: Q01DX009 (ip), vehicle: other): 145 % of control; T/C (dose: 5.0 mg/kg/injection, schedule: Q01DX009 (ip), vehicle: Klucel (hydroxypropylcellulose) (HPC)): 127 % of control; T/C (dose: 6.0 mg/kg/injection, schedule: Q01DX001 (ip), vehicle: other): 126 % of control; T/C (dose: 6.0 mg/kg/injection, schedule: Q01DX005 (ip), vehicle: other): 133 % of control; T/C (dose: 6.25 mg/kg/injection, schedule: Q01DX005 (ip), vehicle: Klucel (hydroxypropylcellulose) (HPC)): 144 % of control; T/C (dose: 6.25 mg/kg/injection, schedule: Q01DX005 (ip), vehicle: distilled water + Tween-80): 118, 124, 126 (2×), 128, 129 (3×), 131 (2×), 136, 138, 140, 141, 143, 150, 151 (2×), 176 % of control; T/C (dose: 6.25 mg/kg/injection, schedule: Q01DX009 (ip), vehicle: Klucel (hydroxypropylcellulose) (HPC)): 142 % of control; T/C (dose: 6.25 mg/kg/injection, schedule: Q01DX009 (ip), vehicle: distilled water + Tween-80, evaluated on day 30): 129, 142, 148, 149 (2×), 151 % of control; T/C (dose: 6.25 mg/kg/injection, schedule: Q01DX009 (ip), vehicle: distilled water + Tween-80, evaluated on day 45): 141 % of control; T/C (dose: 9.38 mg/kg/injection, schedule: Q01DX009 (ip), vehicle: saline with Tween-80): 145 % of control; T/C (dose: 10.0 mg/kg/injection, schedule: Q01DX009 (ip), vehicle: Klucel (hydroxypropylcellulose) (HPC)): 141 % of control; T/C (dose: 12.0 mg/kg/injection, schedule: Q01DX001 (ip), vehicle: other): 130 % of control; T/C (dose: 12.0 mg/kg/injection, schedule: Q01DX005 (iv), vehicle: other): 125 % of control; T/C (dose: 12.5 mg/kg/injection, schedule: Q01DX005 (ip), vehicle: distilled water + Tween-80): 121, 125, 132 (2×), 133 (2×), 136, 140, 141 (2×), 142, 143, 145, 147, 149 (2×), 151, 156, 157, 161, 166, 179 % of control; T/C (dose: 12.5 mg/kg/injection, schedule: Q01DX005 (ip), vehicle: saline with Tween-80): 146 % of control; T/C (dose: 12.5 mg/kg/injection, schedule: Q01DX009 (ip), vehicle: Klucel (hydroxypropylcellulose) (HPC)): 149 % of control; T/C (dose: 12.5 mg/kg/injection, schedule: Q01DX009 (ip), vehicle: distilled water + Tween-80, evaluated on day 30): 137, 161, 164, 165, 177, 178 % of control; T/C (dose: 12.5 mg/kg/injection, schedule: Q01DX009 (ip), vehicle: distilled water + Tween-80, evaluated on day 45): 148 % of control; T/C (dose: 15.0 mg/kg/injection, schedule: Q01DX005 (ip), vehicle: saline with Tween-80): 125 % of control; T/C [1]: 125 % of control; survivor count [1]: 8 of 8; T/C (dose: 20.0 mg/kg/injection, schedule: Q01DX009 (ip), vehicle: Klucel (hydroxypropylcellulose) (HPC)): 144 % of control; T/C (dose: 24.0 mg/kg/injection, schedule: Q01DX001 (ip), vehicle: other): 144 % of control; T/C (dose: 24.0 mg/kg/injection, schedule: Q01DX001 (iv), vehicle: other): 126 % of control; T/C (dose: 24.0 mg/kg/injection, schedule: Q01DX005 (iv), vehicle: other): 135 % of control; T/C (dose: 25.0 mg/kg/injection, schedule: Q01DX005 (ip), vehicle: distilled water + Tween-80): 144, 146, 147, 151, 155, 160 (2×), 161, 163, 165, 166, 167, 168, 169 [5 of 6 alive], 172 (3×), 175 (2×), 178, 189, 193 % of control; T/C (dose: 25.0 mg/kg/injection, schedule: Q01DX009 (ip), vehicle: distilled water + Tween-80, evaluated on day 30): 147, 151, 181, 187, 194, 226 % of control; T/C (dose: 25.0 mg/kg/injection, schedule: Q01DX009 (ip), vehicle: distilled water + Tween-80, evaluated on day 45): 222 % of control; survivor count (dose: 25.0 mg/kg/injection, schedule: Q01DX009 (ip), vehicle: other): 6 of 6; T/C (dose: 30.0 mg/kg/injection, schedule: Q01DX005 (ip), vehicle: saline with Tween-80): 139 % of control; survivor count (dose: 37.5 mg/kg/injection, schedule: Q01DX009 (ip), vehicle: other): 6 of 8 and 8 of 8; T/C (dose: 48.0 mg/kg/injection, schedule: Q01DX001 (iv), vehicle: other): 147 % of control; survivor count (dose: 48.0 mg/kg/injection, schedule: Q01DX005 (iv), vehicle: other): 7 of 10; T/C (dose: 50.0 mg/kg/injection, schedule: Q01DX005 (ip), vehicle: distilled water + Tween-80): 129, 159, 166, 167, 169, 172 [5 of 6 alive], 179, 185, 186, 193, 195, 196, 197, 198, 200, 202, 203, 206, 211, 213, 219, 225 % of control; T/C (dose: 50.0 mg/kg/injection, schedule: Q01DX005 (ip), vehicle: saline with Tween-80): 135 % of control; T/C (dose: 50.0 mg/kg/injection, schedule: Q01DX009 (ip), vehicle: distilled water + Tween-80, evaluated on day 30): 115, 130, 131, 158, 160, 177 % of control; T/C (dose: 50.0 mg/kg/injection, schedule: Q01DX009 (ip), vehicle: distilled water + Tween-80, evaluated on day 45): 166 % of control; survivor count (dose: 50.0 mg/kg/injection, schedule: Q01DX009 (ip), vehicle: other): 2 of 6 and 8 of 10; survivor count (dose: 75.0 mg/kg/injection, schedule: Q01DX009 (ip), vehicle: other): 4 of 8; survivor count (dose: 75.0 mg/kg/injection, schedule: Q01DX009 (ip), vehicle: saline with Tween-80): 8 of 8; T/C (dose: 80.0 mg/kg/injection, schedule: Q01DX009 (ip), vehicle: Klucel (hydroxypropylcellulose) (HPC)): 126 % of control; T/C (dose: 100.0 mg/kg/injection, schedule: Q01DX005 (ip), vehicle: distilled water + Tween-80): 86 [5 of 6 alive], 91, 129, 135, 147, 148, 165, 184 (2×), 186, 193, 198, 209, 211, 219, 221, 222, 223, 227, 229, 256, 261 % of control; survivor count (dose: 100.0 mg/kg/injection, schedule: Q01DX005 (ip), vehicle: other): 5 of 6; survivor count (dose: 100.0 mg/kg/injection, schedule: Q01DX009 (ip), vehicle: other): 3 of 10; T/C (dose: 120.0 mg/kg/injection, schedule: Q01DX005 (ip), vehicle: saline with Tween-80): 130 % of control; T/C [2]: 137 % of control; survivor count [2]: 5 of 6

From PubChem BioAssay AID330 (DTP/NCI, 2004)
